Melanoma cell counts after drug treatment

Values as published with doi:10.1371/journal.pone.0140310, rounded.

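Human melanoma cells were exposed to two drugs together for 72 h in 1,536-well plates and read by automated microscopy after fixing and staining. Each value is the count of nuclei relative to DMSO-treated wells, in %, so that 100 equals the control. Every drug was used at one fixed concentration, the lower of two screened (a fifth of the higher). No replicate spread is given; individual values may be noisy.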 This is part of the screen, not chosen by result. An entry leaves out what has no value listed here.

All values are for the listed drug together with darinaparsin (0.4 µM): C[As](C)SC[C@H](NC(=O)CC[C@H](N)C(=O)O)C(=O)NCC(=O)O

Compounds and concentrations:
perifosine (0.4 µM): CCCCCCCCCCCCCCCCCCOP(=O)([O-])OC1CC[N+](C)(C)CC1
FH535 (1 µM): Cc1cc([N+](=O)[O-])ccc1NS(=O)(=O)c1cc(Cl)ccc1Cl
ENMD-2076 (0.04 µM): Cc1cc(Nc2cc(N3CCN(C)CC3)nc(/C=C/c3ccccc3)n2)n[nH]1
pioglitazone (2 µM): CCc1ccc(CCOc2ccc(CC3SC(=O)NC3=O)cc2)nc1 (stereo not drawn)
temozolomide (2 µM): Cn1nnc2c(C(N)=O)ncn2c1=O
embelin (1.2 µM): CCCCCCCCCCCC1=C(O)C(=O)C=C(O)C1=O
L-779450 (0.2 µM): Oc1cc(-c2nc(-c3ccccc3)[nH]c2-c2ccncc2)ccc1Cl
Src-I1 (2 µM): COc1cc2ncnc(Nc3ccc(Oc4ccccc4)cc3)c2cc1OC
pazopanib (0.4 µM): Cc1ccc(Nc2nccc(N(C)c3ccc4c(C)n(C)nc4c3)n2)cc1S(N)(=O)=O
GSK650394 (0.16 µM): O=C(O)c1ccc(-c2c[nH]c3ncc(-c4ccccc4)cc23)cc1C1CCCC1
NVP-TAE684 (0.08 µM): COc1cc(N2CCC(N3CCN(C)CC3)CC2)ccc1Nc1ncc(Cl)c(Nc2ccccc2S(=O)(=O)C(C)C)n1
YM155 (0.0004 µM): COCC[n+]1c2c(n(Cc3cnccn3)c1C)C(=O)c1ccccc1C2=O
nutlin-3 (0.1 µM): COc1ccc(C2=N[C@@H](c3ccc(Cl)cc3)[C@@H](c3ccc(Cl)cc3)N2C(=O)N2CCNC(=O)C2)c(OC(C)C)c1
bexarotene (2 µM): C=C(c1ccc(C(=O)O)cc1)c1cc2c(cc1C)C(C)(C)CCC2(C)C
BI-D1870 (0.2 µM): CC(C)CCN1c2nc(Nc3cc(F)c(O)c(F)c3)ncc2N(C)C(=O)C1C (stereo not drawn)
fingolimod (2 µM): CCCCCCCCc1ccc(CCC(N)(CO)CO)cc1
PD173074 (0.1 µM): CCN(CC)CCCCNc1ncc2cc(-c3cc(OC)cc(OC)c3)c(NC(=O)NC(C)(C)C)nc2n1
FK866 (0.01 µM): O=C(/C=C/c1cccnc1)NCCCCC1CCN(C(=O)c2ccccc2)CC1
docetaxel (0.0001 µM): CC(=O)O[C@@]12CO[C@@H]1C[C@H](O)[C@@]1(C)C(=O)[C@H](O)C3=C(C)[C@@H](OC(=O)[C@H](O)[C@@H](NC(=O)OC(C)(C)C)c4ccccc4)C[C@@](O)([C@@H](OC(=O)c4ccccc4)[C@H]21)C3(C)C
KU-55933 (1 µM): O=c1cc(-c2cccc3c2Sc2ccccc2S3)oc(N2CCOCC2)c1
XAV939 (2 µM): Oc1nc(-c2ccc(C(F)(F)F)cc2)nc2c1CSCC2
CHIR-265 (0.08 µM): Cn1c(Nc2ccc(C(F)(F)F)cc2)nc2cc(Oc3ccnc(-c4ncc(C(F)(F)F)[nH]4)c3)ccc21
NVP-BEZ235 (0.004 µM): Cn1c(=O)n(-c2ccc(C(C)(C)C#N)cc2)c2c3cc(-c4cnc5ccccc5c4)ccc3ncc21
RKI-983 (0.4 µM): C[C@@H](N)c1ccc(C(=O)Nc2ccnc3[nH]ccc23)cc1
KU-0063794 (0.02 µM): COc1ccc(-c2ccc3c(N4CCOCC4)nc(N4C[C@@H](C)O[C@@H](C)C4)nc3n2)cc1CO
GW2580 (1 µM): COc1ccc(COc2ccc(Cc3cnc(N)nc3N)cc2OC)cc1
dasatinib (0.004 µM): Cc1nc(Nc2ncc(C(=O)Nc3c(C)cccc3Cl)s2)cc(N2CCN(CCO)CC2)n1
lapatinib (0.8 µM): CS(=O)(=O)CCNCc1ccc(-c2ccc3ncnc(Nc4ccc(OCc5cccc(F)c5)c(Cl)c4)c3c2)o1
lestaurtinib (0.004 µM): C[C@]12O[C@H](C[C@]1(O)CO)n1c3ccccc3c3c4c(c5c6ccccc6n2c5c31)CNC4=O
fludarabine (0.2 µM): Nc1nc(F)nc2c1ncn2[C@@H]1O[C@H](CO)[C@@H](O)[C@@H]1O
LFM-A13 (2 µM): C/C(O)=C(\C#N)C(=O)Nc1cc(Br)ccc1Br

For GW2580 the values were 501mel: 105; COLO 829: 103; C32: 104; COLO 792: 106; MEL-HO: 81.3.
For FH535 the values were 501mel: 91.6; COLO 829: 100; C32: 101; COLO 792: 92.9; MEL-HO: 101.
For Src-I1 the values were 501mel: 124; COLO 829: 108; C32: 93.7; COLO 792: 94.0; MEL-HO: 94.2.
For nutlin-3 the values were COLO 829: 84.8; C32: 104; COLO 792: 114; MEL-HO: 114.
For bexarotene the values were COLO 829: 100; C32: 93.3; COLO 792: 94.7; MEL-HO: 100.
For lapatinib the values were COLO 829: 94.7; C32: 125; COLO 792: 88.4; MEL-HO: 83.3.
For YM155 the values were COLO 829: 82.1; C32: 96.7; COLO 792: 89.5; MEL-HO: 112.
For pioglitazone the values were 501mel: 92.1; COLO 829: 101; C32: 104; COLO 792: 88.9; MEL-HO: 86.8.
For perifosine the values were COLO 829: 85.8; C32: 90.0; COLO 792: 99.8; MEL-HO: 93.6.
For L-779450 the values were COLO 829: 97.9; C32: 83.0; COLO 792: 102; MEL-HO: 79.2.
For fludarabine the values were COLO 829: 88.1; C32: 88.5; COLO 792: 93.9; MEL-HO: 102.
For fingolimod the values were COLO 829: 96.6; C32: 109; COLO 792: 94.6; MEL-HO: 91.8.
For KU-0063794 the values were COLO 829: 93.9; C32: 102; COLO 792: 98.7; MEL-HO: 84.7.
For RKI-983 the values were COLO 829: 75.5; C32: 95.4; COLO 792: 94.3; MEL-HO: 89.1.
For LFM-A13 the values were COLO 829: 98.8; C32: 85.7; COLO 792: 96.7; MEL-HO: 79.4.
For KU-55933 the values were 501mel: 75.2; COLO 829: 111; C32: 97.2; COLO 792: 91.7; MEL-HO: 105.
For NVP-BEZ235 the values were COLO 829: 103; C32: 95.8; COLO 792: 89.0; MEL-HO: 95.1.
For BI-D1870 the values were 501mel: 101; COLO 829: 102; C32: 102; COLO 792: 104; MEL-HO: 101.
For FK866 the values were COLO 829: 80.7; C32: 94.4; COLO 792: 42.0; MEL-HO: 42.2.
For ENMD-2076 the values were COLO 829: 87.7; C32: 95.8; COLO 792: 84.3; MEL-HO: 90.7.
For NVP-TAE684 the values were COLO 829: 90.0; C32: 80.2; COLO 792: 92.8; MEL-HO: 91.0.
For docetaxel the values were COLO 829: 33.5; C32: 80.4; COLO 792: 29.9; MEL-HO: 54.0.
For PD173074 the values were 501mel: 119; COLO 829: 90.2; C32: 89.6; COLO 792: 101; MEL-HO: 89.3.
For pazopanib the values were COLO 829: 106; C32: 110; COLO 792: 104; MEL-HO: 94.8.
For embelin the values were 501mel: 93.1; COLO 829: 96.7; C32: 93.7; COLO 792: 100; MEL-HO: 98.5.
For temozolomide the values were COLO 829: 84.9; C32: 108; COLO 792: 90.6; MEL-HO: 104.
For lestaurtinib the values were COLO 829: 112; C32: 99.9; COLO 792: 112; MEL-HO: 95.7.
For CHIR-265 the values were COLO 829: 121; C32: 90.2; COLO 792: 54.0; MEL-HO: 86.2.
For dasatinib the values were COLO 829: 93.5; C32: 80.1; COLO 792: 72.1; MEL-HO: 88.5.
For XAV939 the values were 501mel: 100; COLO 829: 104; C32: 113; COLO 792: 90.7; MEL-HO: 92.3.
For GSK650394 the values were COLO 829: 119; C32: 105; COLO 792: 106; MEL-HO: 91.4.